# From article PMC7819943, “Rice protein-binding microarrays: a tool to detect cis-acting elements near promoter regions in rice”
# The other results are listed elsewhere or left out.
# Target: T1, OsSMF1 (Oryza sativa, UniProt Q6ZLB0 1-436)
# T1 sequence: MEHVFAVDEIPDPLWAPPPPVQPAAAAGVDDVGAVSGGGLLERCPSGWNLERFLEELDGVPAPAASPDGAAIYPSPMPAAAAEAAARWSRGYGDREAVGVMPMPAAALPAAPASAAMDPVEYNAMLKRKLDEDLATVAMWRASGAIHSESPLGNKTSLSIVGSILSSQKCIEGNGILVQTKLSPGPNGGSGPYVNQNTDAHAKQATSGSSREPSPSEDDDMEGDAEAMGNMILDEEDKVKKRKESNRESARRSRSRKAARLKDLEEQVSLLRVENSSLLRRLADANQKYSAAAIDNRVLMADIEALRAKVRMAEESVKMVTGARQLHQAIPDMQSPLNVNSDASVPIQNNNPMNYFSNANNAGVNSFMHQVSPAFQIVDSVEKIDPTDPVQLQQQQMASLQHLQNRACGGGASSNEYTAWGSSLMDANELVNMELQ
# Assay: protein-binding microarray (RPBM); PBS, 2% BSA, 51.3 ng/ul salmon testes DNA, 50 uM zinc acetate, 200 nM TF, 25 C, 1 h; high values mean tight binding
# Conditions: protein: recombinant; tags: N-terminal polyhistidine and DsRed monomer fusion (pET32a); chain copies: 2; label: CyDye5-dUTP incorporated in the synthesized complementary strand; 3' TTTTT single-stranded linker to array surface; dsDNA, one strand shown
# Outline: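 Transcription factors were each fused at the N-terminus to a polyhistidine tag plus DsRed and expressed in E. coli BL21-CodonPlus before Ni–NTA purification. Binding to a double-stranded custom Agilent array was carried out with 200 nM protein at 25 °C for 1 h in PBS, 2% BSA, salmon testes DNA and 50 µM zinc acetate. The binding signal is per-feature fluorescence intensity, in arbitrary units, on an Axon 4000B scanner.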
row,Sequence,binding signal
1,AGGATAGCCTCGTGCTGTACGTGCTGTACAACGCGGTGGTCGGAGTCACCTAGTGCAG,12300 fluorescence intensity (a.u.)
2,GCTATAGGTGAGTAACCCGTGACAGTTCATTTATATCCGGCGGAGTCACCTAGTGCAG,3190 fluorescence intensity (a.u.)
3,TTTCCGGAGGACCCCGTCCCAACTCTTGATGACACGCTGCCGGAGTCACCTAGTGCAG,3250 fluorescence intensity (a.u.)
4,TAATTTGATCACGCACATCAGCTCATGATCTCAATCCTCGCGGAGTCACCTAGTGCAG,3310 fluorescence intensity (a.u.)
5,CAGTTACGCGCCGTGCCTACCCGTGTATCACCGCGATGAGCGGAGTCACCTAGTGCAG,3270 fluorescence intensity (a.u.)
6,GTTTAAATATATTGTTCAACCTTTTACAAGATAAAAGGGTCGGAGTCACCTAGTGCAG,27300 fluorescence intensity (a.u.)
7,TGGGTGAGAGTTTGAACCCGAACATATGACACATCTATGTCGGAGTCACCTAGTGCAG,3270 fluorescence intensity (a.u.)
8,TAAAGTAAACTCGATCTCTTTCCGAGAAGTGTATTATTTTCGGAGTCACCTAGTGCAG,41400 fluorescence intensity (a.u.)
9,CGACGAGGAGGCCGGGGATGGAGCCGACGGTGCGGATGTCCGGAGTCACCTAGTGCAG,3810 fluorescence intensity (a.u.)
10,AAAGAAGAAATCCACCTGACCCCGCGCCACCTGTCGCCTCCGGAGTCACCTAGTGCAG,5530 fluorescence intensity (a.u.)
11,GGGAAACGAGTCAAGCTGACGTGTGCAAGAATCTCCTACACGGAGTCACCTAGTGCAG,13500 fluorescence intensity (a.u.)
12,ACTCCCCATGCATGGACATGTGCATAATGCGTGCGTCGCCCGGAGTCACCTAGTGCAG,3240 fluorescence intensity (a.u.)
13,ATATTTGGTCCCACCTGTCATACACATATTACGTATTGGACGGAGTCACCTAGTGCAG,3860 fluorescence intensity (a.u.)
14,TAAGCGAAGCATACCTGACGTGTTAGCTCATTGTAACTCGCGGAGTCACCTAGTGCAG,9900 fluorescence intensity (a.u.)
15,AATAACTGATGACTGTGAATGATTGATACGATGTAGTAGGCGGAGTCACCTAGTGCAG,4020 fluorescence intensity (a.u.)
16,CCCACAGACCCTCGGGTCCACATGTCAGTCTGCAGTACTTCGGAGTCACCTAGTGCAG,3600 fluorescence intensity (a.u.)
17,GATTACCTGATTACCTGATTACCTGTGTCACTGACAACTCCGGAGTCACCTAGTGCAG,4430 fluorescence intensity (a.u.)
18,TTGGATTGCAGTGGGGCGGACGGCGGTGGGCGGGGCTTCTCGGAGTCACCTAGTGCAG,5880 fluorescence intensity (a.u.)
19,TGACCTGATTACTGACTGACTAATGAGGTGATGCAGATTTCGGAGTCACCTAGTGCAG,3200 fluorescence intensity (a.u.)
20,CCGCGGTGGCTCCGGCCCAGCCCGCCTGAACCCTAGAGGGCGGAGTCACCTAGTGCAG,5540 fluorescence intensity (a.u.)
21,CAAATTAACTACGTAGTAGTGCCACGTCAGCCTAAAATCGCGGAGTCACCTAGTGCAG,33300 fluorescence intensity (a.u.)

row,Sequence,binding signal
1,GATCCAACCATCCACGTGGCCCTGTGTGCCGACCCTTCCACGGAGTCACCTAGTGCAG,14700 fluorescence intensity (a.u.)
2,CCCAACCGCCGTCCACCACCTCCAAACTCCAAAGCCCTTTCGGAGTCACCTAGTGCAG,3800 fluorescence intensity (a.u.)
3,ACCACTACGCCTCCACCTCCACACCTCACCTCCTCCACCTCGGAGTCACCTAGTGCAG,3840 fluorescence intensity (a.u.)
4,GGGGCCCACATGTCATTCTCACCGACGCCCCATCCCTTCTCGGAGTCACCTAGTGCAG,3530 fluorescence intensity (a.u.)
5,GGGGAAAGAGAGAGGGTGATGACGTGAACACCTTGACACACGGAGTCACCTAGTGCAG,4870 fluorescence intensity (a.u.)
6,TGGACCGGGTCAATTTGCCACATCATTAAACTAATCATCCCGGAGTCACCTAGTGCAG,9940 fluorescence intensity (a.u.)
7,ATAGTTCCAAACCAGCTGAGCTCAGCCTTGTACACTGAACCGGAGTCACCTAGTGCAG,3610 fluorescence intensity (a.u.)
8,AGGCGATAAACCCAACATACTCCAACATCACAGCCACACCCGGAGTCACCTAGTGCAG,17300 fluorescence intensity (a.u.)
9,GAAATTCTCGTAATTATGAATCATCCCGTACTATTCGCAGCGGAGTCACCTAGTGCAG,3780 fluorescence intensity (a.u.)
10,TGTTCATCCGTCGTCAGACCTGTTACCAGATCTGGACTTCCGGAGTCACCTAGTGCAG,4620 fluorescence intensity (a.u.)
11,CGTTGTCGCCACCACCACCGCCGCCGTCGCCACAACTCCGCGGAGTCACCTAGTGCAG,3220 fluorescence intensity (a.u.)
12,CCGTCCAAAACTACCCATCTGCCACGTGGCACCCGCCCATCGGAGTCACCTAGTGCAG,29800 fluorescence intensity (a.u.)
13,GGCGCCACGCTCCTCCTCCTCGACGTGCCCCAGCGCACCCCGGAGTCACCTAGTGCAG,3540 fluorescence intensity (a.u.)
14,CCGGTGCCGTCGTGTCGTTCGCCGTCTGCAAGCACATAGTCGGAGTCACCTAGTGCAG,4940 fluorescence intensity (a.u.)
15,CGACCACATCGGATGTGGATTAATATATTCCTCGAGGGACCGGAGTCACCTAGTGCAG,19800 fluorescence intensity (a.u.)
16,CCCGGCAGCCGCAGGCGACTCTGTCTCCGCGCGCTCGAGCCGGAGTCACCTAGTGCAG,26400 fluorescence intensity (a.u.)
17,CGGGGCGGCCGCAGCCGCCGTCGCCGTCGCCGTCGCCATTCGGAGTCACCTAGTGCAG,3140 fluorescence intensity (a.u.)
18,CGATTAATGTGGGAATTTCTAGCCCTCACAACGAACGTGGCGGAGTCACCTAGTGCAG,3160 fluorescence intensity (a.u.)
19,TTATGTAATTAACTTAAATACAAATTTCCTGTAATAGTTGCGGAGTCACCTAGTGCAG,4420 fluorescence intensity (a.u.)
20,AGGTCTGGTTAGTGTTACAATAGAGGCGTGGAGCATAAACCGGAGTCACCTAGTGCAG,24600 fluorescence intensity (a.u.)
21,GATTAAACAGCAAGTAGTGTACTAGTGTCACTTTTCCTTGCGGAGTCACCTAGTGCAG,3660 fluorescence intensity (a.u.)

# Pulled one by one from above:
row,Sequence,binding signal
15,CGACCACATCGGATGTGGATTAATATATTCCTCGAGGGACCGGAGTCACCTAGTGCAG,19800 fluorescence intensity (a.u.)
10,TGTTCATCCGTCGTCAGACCTGTTACCAGATCTGGACTTCCGGAGTCACCTAGTGCAG,4620 fluorescence intensity (a.u.)
